# Reference: PubChem BioAssay AID540276 (National Center for Advancing Translational Sciences (NCATS), 2011)
# In all, about 300,000 compounds went through this assay and about 5,400 (1.8%) were called active. The inconclusive results got no clear call from the source; some entries with a clear call stand among them for comparison. Calls follow the shape of the full dose curve; tested in HEK293 cells. Potencies of inconclusive entries are doubtful fits and often do not repeat.
# Experiment: qHTS for inhibitors of binding or entry into cells for Marburg Virus
# Details: Marburg virus pseudotyped entry inhibition, cell reporter; series mostly up to 37.8 µM
# Potency is read from the fitted curve at half-maximal effect.
row,SMILES,Potency
1,CCN(CC)S(=O)(=O)c1ccc(NC(=O)Nc2cccc(C(F)(F)F)c2)cc1,"inconclusive: 29.1 µM [inhibitor, single point]"
2,Cc1ccc(NC(=O)CCC(=O)c2cccs2)nc1,inactive
3,Cc1cc(=O)n2c3ccccc3n(C)c2n1,"inconclusive: 1 µM [inhibitor, single point]"
4,Cc1ccc(C(=O)NC(=S)Nc2cccc3c(C)cc(C)nc23)cc1,"inconclusive: 16.4 µM [inhibitor, single point]"
5,CCC(=O)NC(NC(=S)Nc1cccc2cccnc12)C(Cl)(Cl)Cl (stereo not drawn),"inconclusive: 1.26 µM [activator, single point]"
6,Cc1cc(F)ccc1N1CCC(N2CCN(C(C)C)C(CCO)C2)CC1 (stereo not drawn),"inconclusive: 35.5 µM [inhibitor, single point]"
7,C=CCNC(=S)Nc1ccc(N(C)C)cc1,"inconclusive: 0.562 µM [activator, full curve, poor fit]"
8,Cc1cc(C)nc(SC(C)C(=O)O)n1 (stereo not drawn),"inconclusive: 2.91 µM [activator, partial curve, poor fit]"
9,Cc1ccc(N2C(=O)NC(NS(=O)(=O)c3ccccc3)(C(F)(F)F)C2=O)cc1C (stereo not drawn),"inconclusive: 10 µM [activator, partial curve]"
10,COC(=O)c1c(Oc2ccc(OC)cc2)nnc(-c2ccccc2)c1-c1ccccc1,"inconclusive: 35.5 µM [inhibitor, single point]"
11,CCc1ccc2[nH]c(=O)c(CN(CCN(C)C)C(=S)NCc3ccco3)cc2c1,"inconclusive: 20 µM [inhibitor, single point]"
12,O=C(NCc1ccco1)c1cc(-c2cccs2)nc2ccccc12,"inconclusive: 14.1 µM [inhibitor, single point]"
13,CC(C)=CCC(C)(C)/C=N/NC(N)=O,inactive
14,O=C(c1ccccc1)N1CCN(C(=O)c2cc3nc(-c4ccccc4)cc(C(F)(F)F)n3n2)CC1,"inconclusive: 11.2 µM [inhibitor, partial curve]"
15,O=C(Nc1nnc(C2CCCCC2)s1)C1CC(=O)N(c2ccccc2)C1 (stereo not drawn),inactive
16,c1cc(CNCCCN2CCOCC2)ccn1,"inconclusive: 0.517 µM [inhibitor, full curve, poor fit]"
17,CCc1nnc(NC(=O)C(C)C)s1,inactive
18,CCN(CC)S(=O)(=O)c1ccc(Cl)c(C(=O)Nc2nnc(C)s2)c1,inactive
19,C=CCNCC(=O)N1N=C(c2ccc3ccccc3c2)CC1c1ccc(OC)cc1 (stereo not drawn),active: 8.91 µM
20,Cc1cccnc1-n1c(-c2ccco2)nc2ccccc2c1=O,inactive
21,Cn1c(SCC(=O)NCCc2ccccc2)ncc(C(=O)Nc2ccc(F)cc2)c1=O,"inconclusive: 7.08 µM [activator, partial curve, poor fit]"
22,Cc1ccc(NC(=O)Cc2coc3ccc(C(C)C)cc23)c(C)c1,"inconclusive: 11.2 µM [inhibitor, single point]"
23,CCCCSc1nc(N)c(C#N)c(-c2cccs2)c1C#N,"inconclusive: 29.1 µM [inhibitor, single point]"

row,SMILES,Potency
1,COc1ccc(C2CC(c3ccc(OC)cc3O)=NN2C(=O)c2ccccc2)cc1 (stereo not drawn),"inconclusive: 7.08 µM [inhibitor, partial curve, poor fit]"
2,O=C(Nc1ccc(S(=O)(=O)N2CCCCC2)cc1)C1CC(=O)N(Cc2ccccc2)C1 (stereo not drawn),inactive
3,COc1ccc(CNS(=O)(=O)c2cc3c4c(c2)CCN4C(=O)CC3)cc1,"inconclusive: 35.5 µM [activator, single point]"
4,O=S(=O)(Nc1nc2ccccc2nc1Nc1ccccc1Br)c1ccccc1,inactive
5,C/C(=N\NC(=O)C1COc2ccccc2O1)c1cccs1 (stereo not drawn),inactive
6,O=C(Nc1ccc2c(c1)OCO2)c1ccc(Br)s1,"inconclusive: 6.51 µM [activator, single point]"
7,CCCCNC(=O)/C=C/c1ccc(S(=O)(=O)Nc2ccc(OC)cc2)cc1,"inconclusive: 39.8 µM [inhibitor, single point]"
8,Cc1cc(C(F)F)n2nc(C(=O)Nc3ccc(C(C)C)cc3)nc2n1,"inconclusive: 25.1 µM [activator, single point]"
9,Cc1ccc(-n2nnnc2-c2ccccc2)cc1,"inconclusive: 1 µM [inhibitor, full curve, poor fit]"
10,CC1CC(C)CN(S(=O)(=O)c2ccc(NC(=O)C3CSC4(C)CCC(=O)N34)cc2)C1 (stereo not drawn),inactive
11,Cc1ccc(C2/C(=C(/O)c3ccccc3)C(=O)C(=O)N2CCN2CCOCC2)o1 (stereo not drawn),inactive
12,COc1cccc(CNC(=O)Cc2csc(NC(=O)Nc3ccccc3OC)n2)c1,inactive
13,COc1ccc(C(=O)NNS(=O)(=O)c2ccccc2)cc1,"inconclusive: 0.1 µM [activator, full curve, poor fit]"
14,Cc1c(Br)c([N+](=O)[O-])nn1CCCC(=O)Nc1sc2c(c1C(N)=O)CCC(C)C2 (stereo not drawn),"inconclusive: 0.562 µM [inhibitor, full curve, poor fit]"
15,Cc1ccc(S(=O)(=O)N2CCc3cc(C(=O)Nc4ccc(C(F)(F)F)cc4)ccc32)cc1,inactive
16,Cc1ccccc1-n1c(CSC(=N)N)nc2ccccc2c1=O,"inconclusive: 25.9 µM [inhibitor, partial curve, poor fit]"
17,Cc1ccc(CCNC(=O)C2CCN(S(=O)(=O)N3CCC4(CC3)OCCO4)CC2)cc1,"inconclusive: 25.9 µM [activator, single point]"
18,COc1cc(-n2c(N)c(C(=O)NCc3ccco3)c3nc4ccccc4nc32)cc(OC)c1OC,"inconclusive: 23.1 µM [inhibitor, single point]"
19,COCCNC(=O)Cn1cnc2c1c(=O)n(C)c(=O)n2C,inactive
20,COc1ccccc1CNc1ncnc2sccc12,active: 6.31 µM
21,CCc1ccc(-c2cc3c(=O)n(CC(=O)NCCCN4CCN(C)CC4)ncn3n2)cc1,"inconclusive: 15.8 µM [inhibitor, partial curve, poor fit]"
22,O=C(NCCCN1CCOCC1)c1ccc2c(=O)n(Cc3cccc(Br)c3)c(=S)[nH]c2c1,"inconclusive: 10 µM [inhibitor, partial curve, poor fit]"
23,O=C(O)CSC1CC(=O)N(c2ccc(Cl)c(Cl)c2)C1=O (stereo not drawn),"inconclusive: 5.62 µM [activator, single point]"

# Fetched by structure from above (three):
row,SMILES,Potency
22,O=C(NCCCN1CCOCC1)c1ccc2c(=O)n(Cc3cccc(Br)c3)c(=S)[nH]c2c1,"inconclusive: 10 µM [inhibitor, partial curve, poor fit]"
5,C/C(=N\NC(=O)C1COc2ccccc2O1)c1cccs1 (stereo not drawn),inactive
3,COc1ccc(CNS(=O)(=O)c2cc3c4c(c2)CCN4C(=O)CC3)cc1,"inconclusive: 35.5 µM [activator, single point]"

# Going on with the list.

row,SMILES,Potency
1,COc1ccc(CCNC(=O)CSc2cn(CCNC(=O)c3cccc(C(F)(F)F)c3)c3ccccc23)cc1OC,"inconclusive: 11.2 µM [inhibitor, partial curve, poor fit]"
2,CCCSc1nnc2c(n1)OC(c1ccc(Br)s1)Nc1ccccc1-2 (stereo not drawn),"inconclusive: 28.2 µM [activator, single point]"
3,COc1ccc(C(O)P(=O)(OCCC(C)C)c2ccc(N(C)C)cc2)cc1OC (stereo not drawn),"inconclusive: 3.55 µM [activator, single point]"
4,COc1ccc(C(=O)c2sc3nc(C)cc(-c4cccs4)c3c2N)cc1OC,"inconclusive: 35.5 µM [inhibitor, single point]"
5,Cn1cnc2cc(OC(=O)c3ccccc3)ccc21,inactive
6,O=C(Cc1cccs1)NCc1ccc(Cl)cc1Cl,inactive
7,COC(=O)c1ccc(N2CCC(c3cc(-c4ccc(OC)cc4)n[nH]3)CC2)c([N+](=O)[O-])c1,"inconclusive: 11.6 µM [inhibitor, partial curve]"
8,Cc1ccc2oc3c(c(=O)c2c1)C(c1ccccc1F)N(CCCN(C)C)C3=O (stereo not drawn),"inconclusive: 1.58 µM [activator, partial curve, poor fit]"
9,COc1ccc(-n2nnc3c(SCC(=O)NCC4CCCO4)ncnc32)cc1 (stereo not drawn),"inconclusive: 10 µM [inhibitor, single point]"
10,C/C(=N\NS(=O)(=O)c1cccc([N+](=O)[O-])c1)c1cccnc1,inactive
11,c1ccc2c(c1)OC(CCCN1CCCCC1)c1ccccc1S2 (stereo not drawn),"inconclusive: 7.94 µM [inhibitor, partial curve, poor fit]"
12,CC1C(=O)N(c2ccc(S(=O)(=O)N(C)C)cc2)C1(/C=C/c1ccccc1)C(=O)NC1CCCC1 (stereo not drawn),"inconclusive: 7.08 µM [inhibitor, full curve]"
13,CCc1ccc2[nH]c(=O)c(CN(Cc3ccccc3)Cc3nnnn3Cc3ccco3)cc2c1,"inconclusive: 35.5 µM [inhibitor, single point]"
14,Cc1ccc(S(=O)(=O)Nc2cc(C(F)(F)F)ccc2N2CCOCC2)cc1,inactive
15,Cc1ccc(S(=O)(=O)Nc2cc(C)cn(Cc3ccccc3)c2=O)cc1,"inconclusive: 11.2 µM [inhibitor, partial curve, poor fit]"
16,Cc1ccc(C(=O)CSc2nnc(N)s2)c(C)c1,inactive
17,Cc1ccc(NC(=O)CSc2nnc(CCNC(=O)OC(C)(C)C)o2)c(C)c1,inactive
18,COc1ccc(N2C(=O)CCC(C(=O)c3ccccc3)=C2C)cc1,"inconclusive: 13 µM [activator, single point]"
19,CCn1c(N2CCN(C(=S)NCCc3ccccc3)CC2)nc2ccccc21,"inconclusive: 8.2 µM [inhibitor, partial curve, poor fit]"
20,CCOC(=O)C1=C(CN2CCc3ccccc32)NC(=O)NC1c1cccc([N+](=O)[O-])c1 (stereo not drawn),"inconclusive: 23.1 µM [inhibitor, single point]"
21,CC(C)CN(C(=O)COC(=O)Cc1cccc2ccccc12)c1c(N)n(Cc2ccccc2)c(=O)[nH]c1=O,inactive
22,CCOc1ccc(C(=O)Nc2ccccc2CC)cc1[N+](=O)[O-],"inconclusive: 0.631 µM [inhibitor, full curve, poor fit]"
